From patent publication US20260035452A1, “NOVEL INTERLEUKIN-17A (IL-17A)-DERIVED PEPTIDE AND NEUTRALIZING ANTIBODY (AB17-IPL-1)” (THE UNIVERSITY OF BIRMINGHAM, priority 2022, published 2026)
No constants are given. Whether binding was seen depends on the method and setting. Some results given as binding are weak or reduced against the parent protein; the word gives no strength.

Target: FM-0410 peptide (Ac-…)
Assay: hybridoma selection by ELISA against the peptide; no number given

B1: Ab17-IPL-1 (antibody, mouse IgG1, kappa, V domains shown)
VH: EVILVESGGGLVKPGGSLKLSCAASGFTFSSYAMSWVRQTPEKRLEWVATITGGGTYIYYPDSVKGRFTISRDNAKNTLYLQMSSLRSEDTAMYFCARIYGRNYYFDYWGQGTTLTVSS
VL: QIVLTQSPAIMSASLGEEITLTCSANSSVTYMHWYQQKSGTSPKLLIYSTSNLASGVPSRFSGSGSGTFYSLTISSVEAEDAADYYCHQWSSYRTFGGGTKLEIQR
- binding: binds
